4 substances from paper PMC7031342 can be followed below.

Sequences of proteins named here, by UniProt entry; tags and fusion partners are left off. A change or cut given only in a name is not applied to a line headed by its entry. A line that says so, or that is headed by a name, gives the form on record, which may keep a tag or linker.
UniProt Q00765: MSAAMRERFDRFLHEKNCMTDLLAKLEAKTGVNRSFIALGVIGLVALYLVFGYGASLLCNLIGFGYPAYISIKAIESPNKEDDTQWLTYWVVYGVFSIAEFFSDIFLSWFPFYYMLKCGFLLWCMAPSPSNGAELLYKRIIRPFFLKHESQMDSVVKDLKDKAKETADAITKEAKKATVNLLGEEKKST
UniProt Q8BMK4: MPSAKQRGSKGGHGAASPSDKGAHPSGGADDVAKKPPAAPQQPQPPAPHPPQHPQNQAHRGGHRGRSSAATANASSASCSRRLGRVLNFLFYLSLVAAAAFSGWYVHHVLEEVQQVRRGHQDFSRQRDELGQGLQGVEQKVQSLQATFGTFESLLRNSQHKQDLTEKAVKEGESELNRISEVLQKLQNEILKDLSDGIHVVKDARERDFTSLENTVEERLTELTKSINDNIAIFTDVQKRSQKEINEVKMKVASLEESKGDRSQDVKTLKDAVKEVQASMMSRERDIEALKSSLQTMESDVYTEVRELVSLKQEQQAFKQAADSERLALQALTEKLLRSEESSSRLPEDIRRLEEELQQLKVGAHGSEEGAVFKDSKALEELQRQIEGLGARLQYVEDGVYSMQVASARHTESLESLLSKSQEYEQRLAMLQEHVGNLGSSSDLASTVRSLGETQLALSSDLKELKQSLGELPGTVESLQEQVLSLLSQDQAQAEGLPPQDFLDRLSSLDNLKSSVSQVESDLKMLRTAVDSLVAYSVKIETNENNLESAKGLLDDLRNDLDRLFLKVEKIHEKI
Myc-RTN4 (Nogo-B) (Q9NQC3-2, form named): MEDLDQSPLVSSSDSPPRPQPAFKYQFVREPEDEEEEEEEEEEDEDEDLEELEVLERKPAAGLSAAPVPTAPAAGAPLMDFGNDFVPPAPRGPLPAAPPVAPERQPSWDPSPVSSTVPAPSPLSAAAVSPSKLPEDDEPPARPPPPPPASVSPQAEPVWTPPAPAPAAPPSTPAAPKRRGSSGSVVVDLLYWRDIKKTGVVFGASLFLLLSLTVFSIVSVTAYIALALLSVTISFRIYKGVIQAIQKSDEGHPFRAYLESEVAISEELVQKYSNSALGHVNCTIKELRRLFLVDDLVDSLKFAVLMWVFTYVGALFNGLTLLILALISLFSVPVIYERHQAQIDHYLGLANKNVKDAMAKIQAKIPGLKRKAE
UniProt Q60870: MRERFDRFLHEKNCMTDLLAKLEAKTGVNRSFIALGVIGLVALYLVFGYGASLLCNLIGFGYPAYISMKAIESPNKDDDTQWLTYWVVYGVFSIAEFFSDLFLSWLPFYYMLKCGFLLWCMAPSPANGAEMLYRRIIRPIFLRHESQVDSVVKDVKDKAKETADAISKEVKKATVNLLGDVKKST
UniProt Q07065: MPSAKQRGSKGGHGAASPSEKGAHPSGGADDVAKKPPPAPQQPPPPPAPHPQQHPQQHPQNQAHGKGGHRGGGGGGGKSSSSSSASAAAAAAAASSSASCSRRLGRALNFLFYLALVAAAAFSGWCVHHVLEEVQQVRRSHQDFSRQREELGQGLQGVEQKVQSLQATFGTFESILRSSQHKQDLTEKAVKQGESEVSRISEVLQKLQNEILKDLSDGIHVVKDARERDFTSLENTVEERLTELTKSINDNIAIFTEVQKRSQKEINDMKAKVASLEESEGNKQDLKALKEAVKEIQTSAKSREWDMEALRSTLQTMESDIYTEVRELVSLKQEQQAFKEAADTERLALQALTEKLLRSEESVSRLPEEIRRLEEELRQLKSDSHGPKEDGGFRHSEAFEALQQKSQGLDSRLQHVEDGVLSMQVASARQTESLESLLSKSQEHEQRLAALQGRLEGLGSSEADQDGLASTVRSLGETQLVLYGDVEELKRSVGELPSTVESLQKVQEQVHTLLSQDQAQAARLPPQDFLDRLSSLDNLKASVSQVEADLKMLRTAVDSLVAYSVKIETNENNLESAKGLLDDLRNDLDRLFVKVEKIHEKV

Experiment [1] has as its target CnVA-tagged (StrepII-6xHis, 3xFlag) REEP5 (human) (UniProt Q00765). The experiment in a line: co-IP; HEK293 cells cotransfected with CnVA-REEP5 and Myc-RTN4 (Nogo-B); immunoprecipitation with anti-REEP5 or anti-Nogo-A/B antibody, immunoblot.
The target in experiment [2] is T1, ATL3 (mouse heart) (mouse (endogenous in cardiac microsomes)) (UniProt Q91YH5).
T1 sequence: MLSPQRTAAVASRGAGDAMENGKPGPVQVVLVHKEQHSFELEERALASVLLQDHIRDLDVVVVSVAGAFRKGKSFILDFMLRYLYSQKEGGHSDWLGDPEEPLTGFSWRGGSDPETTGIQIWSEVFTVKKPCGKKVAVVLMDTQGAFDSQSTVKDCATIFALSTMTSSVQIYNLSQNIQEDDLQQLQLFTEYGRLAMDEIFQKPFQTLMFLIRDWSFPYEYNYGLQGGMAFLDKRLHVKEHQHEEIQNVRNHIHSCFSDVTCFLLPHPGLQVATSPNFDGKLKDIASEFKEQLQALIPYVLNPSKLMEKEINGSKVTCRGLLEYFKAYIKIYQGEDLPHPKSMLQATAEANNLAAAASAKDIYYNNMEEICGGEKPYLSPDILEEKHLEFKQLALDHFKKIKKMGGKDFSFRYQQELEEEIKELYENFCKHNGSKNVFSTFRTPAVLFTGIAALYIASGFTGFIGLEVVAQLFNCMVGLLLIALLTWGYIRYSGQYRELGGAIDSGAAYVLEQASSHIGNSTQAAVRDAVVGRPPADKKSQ
The experiment in a line: co-IP; adult mouse cardiac (ventricular) microsomes; immunoprecipitation with anti-REEP5, anti-RTN4/Nogo-A/B, anti-ATL3 or anti-CKAP4 antibody, immunoblot.

Experiment [3] has as its target CKAP4 (mouse heart) (mouse (endogenous in cardiac microsomes)) (UniProt Q8BMK4). Described as above.
For experiment [4], the target named is T2, Nogo-A (mouse heart) (mouse (endogenous in cardiac microsomes)) (UniProt Q99P72).
T2 sequence: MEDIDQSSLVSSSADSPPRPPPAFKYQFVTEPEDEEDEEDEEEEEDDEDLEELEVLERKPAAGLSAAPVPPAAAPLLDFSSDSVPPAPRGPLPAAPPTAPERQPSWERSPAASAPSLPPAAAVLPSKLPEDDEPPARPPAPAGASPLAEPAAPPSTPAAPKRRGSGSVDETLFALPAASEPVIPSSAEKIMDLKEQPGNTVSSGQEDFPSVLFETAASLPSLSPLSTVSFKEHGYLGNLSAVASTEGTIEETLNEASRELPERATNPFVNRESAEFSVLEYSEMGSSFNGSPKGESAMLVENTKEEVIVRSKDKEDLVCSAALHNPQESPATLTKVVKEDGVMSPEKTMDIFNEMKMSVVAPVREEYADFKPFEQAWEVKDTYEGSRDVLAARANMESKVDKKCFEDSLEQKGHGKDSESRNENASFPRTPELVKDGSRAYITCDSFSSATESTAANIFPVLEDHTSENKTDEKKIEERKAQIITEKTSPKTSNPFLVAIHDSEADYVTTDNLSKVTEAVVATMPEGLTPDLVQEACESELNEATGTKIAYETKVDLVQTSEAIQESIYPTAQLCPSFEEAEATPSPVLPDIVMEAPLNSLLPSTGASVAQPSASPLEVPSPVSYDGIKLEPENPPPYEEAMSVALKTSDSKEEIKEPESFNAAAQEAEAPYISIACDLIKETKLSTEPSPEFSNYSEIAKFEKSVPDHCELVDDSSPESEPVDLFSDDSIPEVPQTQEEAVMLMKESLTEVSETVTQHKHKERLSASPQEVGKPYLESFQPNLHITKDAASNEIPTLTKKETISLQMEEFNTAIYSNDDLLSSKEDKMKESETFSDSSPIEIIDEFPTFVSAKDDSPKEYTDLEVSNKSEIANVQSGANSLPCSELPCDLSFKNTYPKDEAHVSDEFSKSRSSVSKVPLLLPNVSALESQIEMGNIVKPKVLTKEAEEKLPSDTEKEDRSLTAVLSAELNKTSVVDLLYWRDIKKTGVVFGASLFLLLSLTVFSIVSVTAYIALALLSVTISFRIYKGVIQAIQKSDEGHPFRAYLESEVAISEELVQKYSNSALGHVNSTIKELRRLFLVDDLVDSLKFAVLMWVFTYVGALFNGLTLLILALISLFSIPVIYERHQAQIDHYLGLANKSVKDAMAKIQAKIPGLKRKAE
The description is as above.

Experiment [5] deals with T3, Nogo-B (mouse heart) (mouse (endogenous in cardiac microsomes)) (UniProt Q99P72).
T3 sequence: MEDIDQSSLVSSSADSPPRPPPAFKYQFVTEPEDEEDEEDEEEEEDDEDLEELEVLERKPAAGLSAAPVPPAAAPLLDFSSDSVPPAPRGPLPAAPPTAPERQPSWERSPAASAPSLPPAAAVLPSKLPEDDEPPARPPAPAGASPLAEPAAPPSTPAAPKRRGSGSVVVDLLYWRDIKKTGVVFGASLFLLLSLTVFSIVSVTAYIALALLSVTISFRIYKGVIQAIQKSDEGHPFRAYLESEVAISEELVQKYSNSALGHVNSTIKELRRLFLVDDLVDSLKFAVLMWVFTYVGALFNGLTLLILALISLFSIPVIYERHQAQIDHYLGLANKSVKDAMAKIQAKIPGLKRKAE
Described as above.

Another experiment deals with REEP5-V5-6xHis (human) (UniProt Q00765). The experiment in a line: co-IP; HEK293 cells overexpressing CnVA-REEP5 and REEP5-V5-6xHis; immunoprecipitation with anti-V5 antibody, immunoblot. A general note: In western blotting, separated proteins are transferred to a membrane and probed.
A further experiment concerns the target Myc-RTN4 (Nogo-B) (UniProt Q9NQC3). The experiment in a line: co-IP; HEK293 cells cotransfected with CnVA-REEP5 and Myc-RTN4 (Nogo-B); immunoprecipitation with anti-REEP5 or anti-Nogo-A/B antibody, immunoblot.
Experiment [6] deals with CnVA-tagged (StrepII-6xHis, 3xFlag) REEP5 (human) (UniProt Q00765). The experiment in a line: pull-down; nickel-His purification of CnVA-REEP5 from transfected HEK293 cells; immunoblots of the eluate.

Results are given in words; binding and its absence hold for the method and conditions named. In cells and extracts the contact can be indirect. Some binding calls cover weakened binding; strength is not graded here.

For “Myc-RTN4 (Nogo-B) (from UniProt Q9NQC3-2 1-373)”, the binding entry in experiment [1] is “binds”.
For “endogenous mouse REEP5 (from UniProt Q60870 1-185)”, the binding entry in experiment [2], in experiment [3], in experiment [4] and in experiment [5] was “binds” throughout.
As to “CnVA-tagged (StrepII-6xHis, 3xFlag) REEP5 (from UniProt Q00765-1 1-189)”, the binding result with REEP5-V5-6xHis (human) and in the experiment with Myc-RTN4 (Nogo-B) was “binds” each time.
On to “CKAP4 (HEK293) (from UniProt Q07065 1-602)”, for which, in experiment [6], the binding result is on record as “binds”.
